# Results published in publication PMC7819943, “Rice protein-binding microarrays: a tool to detect cis-acting elements near promoter regions in rice”.
# Chains of the proteins cited; added tags and fusions are not shown.
# UniProt Q0JBA9, entry or part of it: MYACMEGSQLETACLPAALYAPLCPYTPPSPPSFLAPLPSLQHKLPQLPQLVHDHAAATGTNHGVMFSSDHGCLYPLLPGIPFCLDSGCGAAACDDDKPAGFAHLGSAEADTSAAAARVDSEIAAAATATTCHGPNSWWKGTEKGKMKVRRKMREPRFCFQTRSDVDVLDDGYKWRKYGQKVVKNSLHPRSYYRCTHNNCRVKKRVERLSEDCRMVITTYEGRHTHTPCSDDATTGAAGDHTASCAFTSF
# The list shows a part of the results.
# Target: OsWRKY34 (Oryza sativa, UniProt Q0JBA9 1-250)
# Assay: protein-binding microarray (RPBM); PBS, 2% BSA, 51.3 ng/ul salmon testes DNA, 50 uM zinc acetate, 200 nM TF, 25 C, 1 h; high values mean tight binding
# Settings: protein: recombinant; tags: N-terminal polyhistidine and DsRed monomer fusion (pET32a); label: CyDye5-dUTP incorporated in the synthesized complementary strand; 3' TTTTT single-stranded linker to array surface; dsDNA, one strand shown
# How it was run: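 Transcription factors, each fused N-terminally to a polyhistidine tag and DsRed, were expressed in E. coli BL21-CodonPlus and purified on Ni–NTA. A custom Agilent array was made double-stranded by primer extension with Cy5-dUTP and blocked with 2% BSA. It was incubated with 200 nM protein in PBS, 2% BSA, salmon testes DNA and 50 µM zinc acetate at 25 °C for 1 h, then washed. The binding signal is per-feature fluorescence intensity (arbitrary units) read on an Axon 4000B scanner.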
row,Sequence,binding signal
1,TCTTTTTAGATGGCAATAAATACTCCACTCTCTTGGATTTCGGAGTCACCTAGTGCAG,8790 fluorescence intensity (a.u.)
2,GCCCTCGTCGTCGTCCGACCACCCGATCCCGACGAGAACCCGGAGTCACCTAGTGCAG,8690 fluorescence intensity (a.u.)
3,TCGTACGCCGACATCTCCCGCCGCTCGCCGCGCGCCCAACCGGAGTCACCTAGTGCAG,9330 fluorescence intensity (a.u.)
4,CACTTCGCCGCGCTCTCCACTTTTGCAGCACATGCCGCCCCGGAGTCACCTAGTGCAG,9990 fluorescence intensity (a.u.)
5,GGTTAGGGTTTGGGGTGGGGAGGGGTGGATGCGCGTGGGCCGGAGTCACCTAGTGCAG,21600 fluorescence intensity (a.u.)
6,TGCATGCTGTCCTTTTTTGGCTGTGCCTGTTTTGCAATTTCGGAGTCACCTAGTGCAG,11300 fluorescence intensity (a.u.)
7,CAACGCGGCTGATTGTGATTATGGTTAGAATTGTGTGTTTCGGAGTCACCTAGTGCAG,10400 fluorescence intensity (a.u.)
8,AGTTTTTCTTTTCTTTTTTTATTTCATTTTCTATATTCTTCGGAGTCACCTAGTGCAG,10100 fluorescence intensity (a.u.)
9,CTGCCGCCGCCCGGGTCATCTGTTCCGCCCACCGCCGTCGCGGAGTCACCTAGTGCAG,9420 fluorescence intensity (a.u.)
10,GGTGCATTGGTATCATGAGTTTGTTATTTCTACTCAAGTACGGAGTCACCTAGTGCAG,8960 fluorescence intensity (a.u.)
11,TTTTCTCTGTTTACTTTTTTTTTATTATTTTTTTGCGCCGCGGAGTCACCTAGTGCAG,8240 fluorescence intensity (a.u.)
12,TTATTCTTCTCGCTACTAGAATCAGTGTTGTCTTAAAAACCGGAGTCACCTAGTGCAG,8620 fluorescence intensity (a.u.)
13,GGCTGTGTTATGCCTTTTGTTCTGTTAGATATCACTCTCGCGGAGTCACCTAGTGCAG,9860 fluorescence intensity (a.u.)
14,CCTCCTCGGGCTTGACTCGTCTCGTCTCGACTCCACGAACCGGAGTCACCTAGTGCAG,8230 fluorescence intensity (a.u.)
15,GAAAGATTTTCACCGTTTGGGTAGGTTGGGGATGGGATGACGGAGTCACCTAGTGCAG,11400 fluorescence intensity (a.u.)
16,CTCCTCTCGCTCCACCGCTTCGTCACGCAGGCCTCCGTCGCGGAGTCACCTAGTGCAG,9340 fluorescence intensity (a.u.)
17,ACACGTTCTCTTGGATTCGATACCTTTGGAATACTCCGTACGGAGTCACCTAGTGCAG,8260 fluorescence intensity (a.u.)
18,CCATTTTCGACCGTACCCTTTTGCCTACCATTAAATTCTGCGGAGTCACCTAGTGCAG,10300 fluorescence intensity (a.u.)
19,CACTACTCATCAGCCCACGTTAACACGCGTTCTCCGGTGGCGGAGTCACCTAGTGCAG,8220 fluorescence intensity (a.u.)
20,GATCTGTAGCTCGTTGCTCTTCTCTCTCTTCTTTTATTTTCGGAGTCACCTAGTGCAG,8390 fluorescence intensity (a.u.)
21,CCTCACCGGATGCTGCCCATGCCGATGCCGACCCGCCGTTCGGAGTCACCTAGTGCAG,10200 fluorescence intensity (a.u.)

row,Sequence,binding signal
1,TGTTTGCCACTTGCCATTTTGCCAGCCGACCAAGCGCCACCGGAGTCACCTAGTGCAG,9700 fluorescence intensity (a.u.)
2,TCTCGATTCACCTTCATCGTCAAGACTCACTACAACTTGTCGGAGTCACCTAGTGCAG,10400 fluorescence intensity (a.u.)
3,CCATTAGGGAAGTCATCCCCACGTGCAGCTTTTTCTCGTCCGGAGTCACCTAGTGCAG,8680 fluorescence intensity (a.u.)
4,TGTTGTTTCCTGTCCACTGACTCGCAGTTCATCCCGGATTCGGAGTCACCTAGTGCAG,9400 fluorescence intensity (a.u.)
5,TGTGTGTGAGCAGCCGCAGTCCTTACGTTTAGCCCAGTCACGGAGTCACCTAGTGCAG,8590 fluorescence intensity (a.u.)
6,TTTATGTGTGACTAAATATTTTCAGTTTTTTTATAAATTTCGGAGTCACCTAGTGCAG,8940 fluorescence intensity (a.u.)
7,ATAAGCTTTCTGTTTCAGTTATATGATGTACCTAATTATGCGGAGTCACCTAGTGCAG,9350 fluorescence intensity (a.u.)
8,AATTAACATCACCAATCAGCAATCACCAACCTTGTCATCTCGGAGTCACCTAGTGCAG,8970 fluorescence intensity (a.u.)
9,AAGTGTAGGTGATTCATGTTGCAGTTATCCAGTTATTTCTCGGAGTCACCTAGTGCAG,11400 fluorescence intensity (a.u.)
10,GTTGTGTTATGATATATCACCTTCTAATATTAGATTATCCCGGAGTCACCTAGTGCAG,8820 fluorescence intensity (a.u.)
11,GAAAGCCATCTCCACTGATTTTCGGTTCGTTTGCTATTGACGGAGTCACCTAGTGCAG,8390 fluorescence intensity (a.u.)
12,TTCTGTTTCTCTATTTTCCATGATAATCTTTCTGTTTCTTCGGAGTCACCTAGTGCAG,11100 fluorescence intensity (a.u.)
13,GTACGGGTATAATGTTTGCTTATGCAATTACTCTATGTCACGGAGTCACCTAGTGCAG,8500 fluorescence intensity (a.u.)
14,TACTACTACTTTCCCACCCTGCCCTCACTACCTACCCACCCGGAGTCACCTAGTGCAG,8300 fluorescence intensity (a.u.)
15,CCGCTTGCTGCTGACTCGTCGAAAGCCATCTCCACTGATTCGGAGTCACCTAGTGCAG,9000 fluorescence intensity (a.u.)
16,GGCCGTCTGTAAATTTCTCCTCCCTCGATGCCGATTATTACGGAGTCACCTAGTGCAG,8490 fluorescence intensity (a.u.)
17,ACCGGCCAATAACAAACTCCTACTGACCAGTGTTATCCATCGGAGTCACCTAGTGCAG,8380 fluorescence intensity (a.u.)
18,ATCTCGGCTGTGTTTCGTTGTTGGCCTAGTGGTGGTCGGTCGGAGTCACCTAGTGCAG,9410 fluorescence intensity (a.u.)
19,CTTCTCCAGCTCAGGTCACCACCTCCCTTGCTCTCTTCTTCGGAGTCACCTAGTGCAG,9740 fluorescence intensity (a.u.)
20,CAATTCTCCATCCAGGTGCCACTCAAAGCTCACACATCGCCGGAGTCACCTAGTGCAG,8790 fluorescence intensity (a.u.)
21,CGAACCTGTCTACATCGCCCGTGTCTTGTGCGTTTGCTCTCGGAGTCACCTAGTGCAG,13000 fluorescence intensity (a.u.)

# Some of the entries above, reformatted:
row	Sequence	binding signal
1	TGTTTGCCACTTGCCATTTTGCCAGCCGACCAAGCGCCACCGGAGTCACCTAGTGCAG	9700 fluorescence intensity (a.u.)
4	TGTTGTTTCCTGTCCACTGACTCGCAGTTCATCCCGGATTCGGAGTCACCTAGTGCAG	9400 fluorescence intensity (a.u.)
20	CAATTCTCCATCCAGGTGCCACTCAAAGCTCACACATCGCCGGAGTCACCTAGTGCAG	8790 fluorescence intensity (a.u.)
